In patent US5480870A (Biosignal Kutato-Fejlesztokft, priority 1991, dated 1996):

Key:
[1] = Fmoc solid-phase peptide synthesis; benzhydrylamine or chloromethylated polystyrene resin; symmetric anhydride or active ester coupling, or DCC, DIC or BOP; settings: whole synthesis, scale 0.25 mmol
[2] = general procedure: Boc solid-phase peptide synthesis; benzhydrylamine or chloromethylated polystyrene resin; symmetric anhydride or active ester coupling, or DCC, DIC or BOP; settings: whole synthesis
[3] = scale of the general procedure 0.25 mmol
[4] = scale 0.27 mmol, one disulfide bridge, sequence written open

Aa-Cys(Acm)-Tyr(tBu)-D-Trp-Lys(Boc)-Val-Cys(Acm)-Trp
isolated mass [1]: 147 mg
isolated yield [1]: 46%

β-Asp(indolinyl)-Cys(4-Me-Bzl)-Tyr(2-Br-Z)-D-Trp-Lys(Z)-Val-Cys(4-Me- Bzl)-Thr(Bzl)
isolated mass ([2]; scale 0.25 mmol): 120 mg
isolated yield ([2]; scale 0.25 mmol): 43%

Pop-Tyr-Tyr-Aa-Lys-Val-Phe-Trp-NH2
isolated mass [2]: 105 mg
isolated yield [2, 3]: 35%

D-Phe-Cys-Tyr-D-Trp-Lys-Val-Cys-Thr-NH2
isolated mass [2, 4]: 54 mg
isolated yield [2, 4]: 19.4%

Ac-Sar-Ala-Tyr-Tyr-Aa-Lys-Val-Phe-Trp-NH2
isolated mass [2]: 85 mg
isolated yield [2, 3]: 28%
